Source: patent US20230310540A1, “PEPTIDE COMPOSITIONS AND METHODS OF USE THEREOF” (priority 2020, published 2023)
At least one peptide structure holds a part that was inferred or is arguable (an end, a ring closure or a residue). Square brackets hold non-standard residues; d marks the D form. Peptide text beside a SMILES is read from it. βAla = NCCC(=O)O

Tests used:
[1] = tested on: MRSA; assay: Deep surgery wound infection model, MRSA; format: in vivo, CD1 mice
[2] = tested on: Klebsiella pneumoniae clinical isolates; conditions: two KP strains with high MIC for D-CONGA
[3] = tested on: P. aeruginosa (PA01); assay: Deep surgery wound infection model, P. aeruginosa; format: in vivo, CD1 mice
[4] = tested on: S. aureus; format: cell-based
Method: Peptide variants of D-CONGA (SEQ ID NO: 1) were tested for activity against E. coli, K. pneumoniae, and S. aureus. Minimum Inhibitory Concentrations (MIC) were measured in 96-well plates by broth dilution. Peptides were serially diluted in buffer or in buffer containing 1×10^9 human RBC/ml. Following 1 hr. incubation, bacteria in growth media were added and the plates were incubated overnight at 37° C. Sterilized, wells were identified to determine MIC. Hemolysis was measured by incubating 1×10^8 human RBCs with serially diluted peptide for 30 minutes followed by centrifugation of the cells and measurements of the released hemoglobin in the supernatant by absorbance at 410 nm. […] Toxicity was measured by incubating serially diluted peptide with WI38 human fibroblast cells in the presence of SYTOX Green, a DNA binding dye that reports on cell death by membrane permeabilization. […]
Antimicrobial peptides and conventional antibiotics were prepared at 5-times the final concentration needed in 0.025% acetic acid. […] Following overnight incubation at 37° C., the OD600 was measured (values of less than 0.1 were considered sterilized). To assess bacterial growth in the assays with RBC, the OD600 was measured after a second day inoculation with 10 μL of solution from the original plate added to 100 μL of sterile TSB followed by overnight incubation. […]

[5] = tested on: ESKAPE pathogens; assay: In vitro activity against ESKAPE pathogens in the presence of RBCs and serum; format: cell-based

CC(C)C[C@@H](NC(=O)[C@@H](CCC(N)=O)NC(=O)[C@@H](CCCNC(=N)N)NC(=O)[C@@H](CCCNC(=N)N)NC(=O)[C@@H](C)NC(=O)[C@@H](Cc1c[nH]c2ccccc12)NC(=O)[C@@H](CCCNC(=N)N)NC(=O)[C@H](N)CCCNC(=N)N)C(=O)N[C@H](C)C(=O)N[C@H](Cc1ccccc1)C(=O)N[C@H](C)C(=O)N[C@H](Cc1ccccc1)C(=O)N[C@H](CCCNC(=N)N)C(=O)N[C@H](CCCNC(=N)N)C(N)=O [D-CONGA-Q7, rrwarrqlafafrr (All D)] (H-[dR][dR][dW][dA][dR][dR][dQ][dL][dA][dF][dA][dF][dR][dR]-NH2)
Time until wound condition score reduced to 0 ([1]; after infection with MRSA, score 0-4, FIG. 4B): ≤ 8 days | Infection (wound bed luminescence) versus vehicle control ([1]; topical 2 mM, 20 μL, every 8 hours, IVIS imaging, FIG. 2C): able to reduce infection as compared to vehicle control | Concentration sterilizing the two K. Pneumonia strains resistant to all the antibiotics [2]: less than 15 uM | Time until wound condition score reduced to 0 ([3]; after infection with P. aeruginosa, score 0-4, FIG. 4A): ≤ 8 days | Biofilm and bacteria on TEGADERM dressing by scanning electron microscopy ([3]; dressing removed on Day 3, FIG. 3): inhibited biofilm formation and significantly eliminated the infecting P. aeruginosa | Infection (wound bed luminescence) versus vehicle control ([3]; topical 2 mM, 20 μL, every 8 hours, IVIS imaging, FIGS. 2A-2B): able to reduce infection as compared to vehicle control

CC(C)C[C@@H](NC(=O)CCNC(=O)[C@@H](CCCNC(=N)N)NC(=O)[C@@H](CCCNC(=N)N)NC(=O)[C@@H](C)NC(=O)[C@@H](Cc1c[nH]c2ccccc12)NC(=O)[C@@H](CCCNC(=N)N)NC(=O)[C@H](N)CCCNC(=N)N)C(=O)N[C@H](C)C(=O)N[C@H](Cc1ccccc1)C(=O)N[C@H](C)C(=O)N[C@H](Cc1ccccc1)C(=O)N[C@H](CCCNC(=N)N)C(=O)N[C@H](CCCNC(=N)N)C(N)=O [D-CONGA-βa7, rrwarr-βa-lafafrr (All D)] (H-[dR][dR][dW][dA][dR][dR][βAla][dL][dA][dF][dA][dF][dR][dR]-NH2)
Activity against gram-positive S. aureus (in words) [4]: completely lost its activity

CC(C)C[C@@H](NC(=O)[C@@H](CCCNC(=N)N)NC(=O)[C@@H](CCCNC(=N)N)NC(=O)[C@@H](C)NC(=O)[C@@H](Cc1c[nH]c2ccccc12)NC(=O)[C@@H](CCCNC(=N)N)NC(=O)[C@H](N)CCCNC(=N)N)C(=O)N[C@H](C)C(=O)N[C@H](Cc1ccccc1)C(=O)N[C@H](C)C(=O)N[C@H](Cc1ccccc1)C(=O)N[C@H](CCCNC(=N)N)C(=O)N[C@H](CCCNC(=N)N)C(N)=O [D-CONGA, rrwarrlafafrr (All D), reference compound] (H-[dR][dR][dW][dA][dR][dR][dL][dA][dF][dA][dF][dR][dR]-NH2)
Effectiveness in vitro against all ESKAPE pathogens (in words) [5]: highly effective
